This note sets out measurements from publication PMC11417407.

Sequences of proteins named here, by UniProt entry; tags and fusion partners are left off.
UniProt Q13838: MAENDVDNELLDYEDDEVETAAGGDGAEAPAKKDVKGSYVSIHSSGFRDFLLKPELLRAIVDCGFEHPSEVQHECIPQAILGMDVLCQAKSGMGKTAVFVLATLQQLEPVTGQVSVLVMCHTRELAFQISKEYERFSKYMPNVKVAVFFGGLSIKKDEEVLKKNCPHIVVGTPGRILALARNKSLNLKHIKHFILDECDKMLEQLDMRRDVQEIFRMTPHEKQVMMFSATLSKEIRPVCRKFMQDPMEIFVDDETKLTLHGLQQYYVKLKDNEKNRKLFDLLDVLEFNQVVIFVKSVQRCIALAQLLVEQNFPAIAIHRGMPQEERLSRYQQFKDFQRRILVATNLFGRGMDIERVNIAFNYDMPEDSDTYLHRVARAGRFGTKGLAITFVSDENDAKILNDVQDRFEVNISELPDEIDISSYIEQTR

In experiment [1] the target is FLAG-UAP56 wild-type (WT) protein (UniProt Q13838). Kind of experiment: affinity purification with mass spectrometry; GST-PHAX and FLAG-UAP56 with HNEs, ATP and RNase A; first anti-FLAG M2 affinity gel and 3xFLAG peptide elution, then Glutathione Sepharose and HRV 3C protease; SDS-PAGE, CBB staining, mass spectrometry of cut-out bands; anti-ALY western blotting; only the target purified. Background: Immunoblotting shows a protein as a band on a membrane.

Experiment [2] has as its target GST-PHAX (UniProt Q9H814). The description is as above.

No constants are given. Whether binding was seen depends on the method and setting. In cells and extracts the contact can be indirect. A yes stands for co-enrichment or nearness to the bait. Other partners may have been found.

B1: DDX1 (endogenous, HeLa nuclear extract) (protein, UniProt Q92499 1-740)
chain: MAAFSEMGVMPEIAQAVEEMDWLLPTDIQAESIPLILGGGDVLMAAETGSGKTGAFSIPVIQIVYETLKDQQEGKKGKTTIKTGASVLNKWQMNPYDRGSAFAIGSDGLCCQSREVKEWHGCRATKGLMKGKHYYEVSCHDQGLCRVGWSTMQASLDLGTDKFGFGFGGTGKKSHNKQFDNYGEEFTMHDTIGCYLDIDKGHVKFSKNGKDLGLAFEIPPHMKNQALFPACVLKNAELKFNFGEEEFKFPPKDGFVALSKAPDGYIVKSQHSGNAQVTQTKFLPNAPKALIVEPSRELAEQTLNNIKQFKKYIDNPKLRELLIIGGVAARDQLSVLENGVDIVVGTPGRLDDLVSTGKLNLSQVRFLVLDEADGLLSQGYSDFINRMHNQIPQVTSDGKRLQVIVCSATLHSFDVKKLSEKIMHFPTWVDLKGEDSVPDTVHHVVVPVNPKTDRLWERLGKSHIRTDDVHAKDNTRPGANSPEMWSEAIKILKGEYAVRAIKEHKMDQAIIFCRTKIDCDNLEQYFIQQGGGPDKKGHQFSCVCLHGDRKPHERKQNLERFKKGDVRFLICTDVAARGIDIHGVPYVINVTLPDEKQNYVHRIGRVGRAERMGLAISLVATEKEKVWYHVCSSRGKGCYNTRLKEDGGCTIWYNEMQLLSEIEEHLNCTISQVEPDIKVPVDEFDGKVTYGQKRAAGGGSYKGHVDILAPTVQELAALEKEAQTSFLHLGYLPNQLFRTF
For B1, the binding result in experiment [1] and in experiment [2] was “binds” in each case.

B2: ASHWIN (endogenous, HeLa nuclear extract) (protein, UniProt Q9BVC5 1-232)
chain: MAGDVGGRSCTDSELLLHPELLSQEFLLLTLEQKNIAVETDVRVNKDSLTDLYVQHAIPLPQRDLPKNRWGKMMEKKREQHEIKNETKRSSTVDGLRKRPLIVFDGSSTSTSIKVKKTENGDNDRLKPPPQASFTSNAFRKLSNSSSSVSPLILSSNLPVNNKTEHNNNDAKQNHDLTHRKSPSGPVKSPPLSPVGTTPVKLKRAAPKEEAEAMNNLKPPQAKRKIQHVTWP
As to B2, the binding entry in experiment [1] and in experiment [2] was “binds” throughout.

B3: RTCB (endogenous, HeLa nuclear extract) (protein, UniProt Q9Y3I0 1-505)
chain: MSRSYNDELQFLEKINKNCWRIKKGFVPNMQVEGVFYVNDALEKLMFEELRNACRGGGVGGFLPAMKQIGNVAALPGIVHRSIGLPDVHSGYGFAIGNMAAFDMNDPEAVVSPGGVGFDINCGVRLLRTNLDESDVQPVKEQLAQAMFDHIPVGVGSKGVIPMNAKDLEEALEMGVDWSLREGYAWAEDKEHCEEYGRMLQADPNKVSARAKKRGLPQLGTLGAGNHYAEIQVVDEIFNEYAAKKMGIDHKGQVCVMIHSGSRGLGHQVATDALVAMEKAMKRDKIIVNDRQLACARIASPEGQDYLKGMAAAGNYAWVNRSSMTFLTRQAFAKVFNTTPDDLDLHVIYDVSHNIAKVEQHVVDGKERTLLVHRKGSTRAFPPHHPLIAVDYQLTGQPVLIGGTMGTCSYVLTGTEQGMTETFGTTCHGAGRALSRAKSRRNLDFQDVLDKLADMGIAIRVASPKLVMEEAPESYKNVTDVVNTCHDAGISKKAIKLRPIAVIKG
For the molecule B3, the binding entry in experiment [1] and in experiment [2] was “binds” in each case.

B4: HPR1 (endogenous, HeLa nuclear extract) (protein, UniProt Q96FV9 1-657)
chain: MSPTPPLFSLPEARTRFTKSTREALNNKNIKPLLSTFSQVPGSENEKKCTLDQAFRGILEEEIINHSSCENVLAIISLAIGGVTEGICTASTPFVLLGDVLDCLPLDQCDTIFTFVEKNVATWKSNTFYSAGKNYLLRMCNDLLRRLSKSQNTVFCGRIQLFLARLFPLSEKSGLNLQSQFNLENVTVFNTNEQESTLGQKHTEDREEGMDVEEGEMGDEEAPTTCSIPIDYNLYRKFWSLQDYFRNPVQCYEKISWKTFLKYSEEVLAVFKSYKLDDTQASRKKMEELKTGGEHVYFAKFLTSEKLMDLQLSDSNFRRHILLQYLILFQYLKGQVKFKSSNYVLTDEQSLWIEDTTKSVYQLLSENPPDGERFSKMVEHILNTEENWNSWKNEGCPSFVKERTSDTKPTRIIRKRTAPEDFLGKGPTKKILMGNEELTRLWNLCPDNMEACKSETREHMPTLEEFFEEAIEQADPENMVENEYKAVNNSNYGWRALRLLARRSPHFFQPTNQQFKSLPEYLENMVIKLAKELPPPSEEIKTGEDEDEEDNDALLKENESPDVRRDKPVTGEQIEVFANKLGEQWKILAPYLEMKDSEIRQIECDSEDMKMRAKQLLVAWQDQEGVHATPENLINALNKSGLSDLAESLTNDNETNS
Turning to B4, the binding entry in experiment [2] is listed as “binds”.

B5: CIP29 (endogenous, HeLa nuclear extract) (protein, UniProt P82979 1-210)
chain: MATETVELHKLKLAELKQECLARGLETKGIKQDLIHRLQAYLEEHAEEEANEEDVLGDETEEEETKPIELPVKEEEPPEKTVDVAAEKKVVKITSEIPQTERMQKRAERFNVPVSLESKKAARAARFGISSVPTKGLSSDNKPMVNLDKLKERAQRFGLNVSSISRKSEDDEKLKKRKERFGIVTSSAGTGTTEDTEAKKRKRAERFGIA
Turning to B5, the binding entry in experiment [1] and in experiment [2] was “binds” each time.

B6: ARS2 (endogenous, HeLa nuclear extract) (protein, UniProt Q9BXP5 1-876)
chain: MGDSDDEYDRRRRDKFRRERSDYDRSRERDERRRGDDWNDREWDRGRERRSRGEYRDYDRNRRERFSPPRHELSPPQKRMRRDWDEHSSDPYHSGYEMPYAGGGGGPTYGPPQPWGHPDVHIMQHHVLPIQARLGSIAEIDLGVPPPVMKTFKEFLLSLDDSVDETEAVKRYNDYKLDFRRQQMQDFFLAHKDEEWFRSKYHPDEVGKRRQEARGALQNRLRVFLSLMETGWFDNLLLDIDKADAIVKMLDAAVIKMEGGTENDLRILEQEEEEEQAGKPGEPSKKEEGRAGAGLGDGERKTNDKDEKKEDGKQAENDSSNDDKTKKSEGDGDKEEKKEDSEKEAKKSSKKRNRKHSGDDSFDEGSVSESESESESGQAEEEKEEAEEALKEKEKPKEEEWEKPKDAAGLECKPRPLHKTCSLFMRNIAPNISRAEIISLCKRYPGFMRVALSEPQPERRFFRRGWVTFDRSVNIKEICWNLQNIRLRECELSPGVNRDLTRRVRNINGITQHKQIVRNDIKLAAKLIHTLDDRTQLWASEPGTPPLPTSLPSQNPILKNITDYLIEEVSAEEEELLGSSGGAPPEEPPKEGNPAEINVERDEKLIKVLDKLLLYLRIVHSLDYYNTCEYPNEDEMPNRCGIIHVRGPMPPNRISHGEVLEWQKTFEEKLTPLLSVRESLSEEEAQKMGRKDPEQEVEKFVTSNTQELGKDKWLCPLSGKKFKGPEFVRKHIFNKHAEKIEEVKKEVAFFNNFLTDAKRPALPEIKPAQPPGPAQILPPGLTPGLPYPHQTPQGLMPYGQPRPPILGYGAGAVRPAVPTGGPPYPHAPYGAGRGNYDAFRGQGGYPGKPRNRMVRGDPRAIVEYRDLDAPDDVDFF
In the case of B6, the binding result in experiment [1] and in experiment [2] was “binds” throughout.
